The supplement of paper PMC3334620
In all, about 33,000 sequences were measured (“E-score (-0.5 to 0.5)”: median about -0.0014, highest 2% from about 0.25 on). Some of the results follow.

biological target: T1, Cad1 (UniProt P24813); test: PBM E-score (8-mer binding enrichment) (E-score (-0.5 to 0.5)); higher = stronger / more preferred TF binding; settings: protein concentration: 100 nM; construct: GST-full length
T1 sequence: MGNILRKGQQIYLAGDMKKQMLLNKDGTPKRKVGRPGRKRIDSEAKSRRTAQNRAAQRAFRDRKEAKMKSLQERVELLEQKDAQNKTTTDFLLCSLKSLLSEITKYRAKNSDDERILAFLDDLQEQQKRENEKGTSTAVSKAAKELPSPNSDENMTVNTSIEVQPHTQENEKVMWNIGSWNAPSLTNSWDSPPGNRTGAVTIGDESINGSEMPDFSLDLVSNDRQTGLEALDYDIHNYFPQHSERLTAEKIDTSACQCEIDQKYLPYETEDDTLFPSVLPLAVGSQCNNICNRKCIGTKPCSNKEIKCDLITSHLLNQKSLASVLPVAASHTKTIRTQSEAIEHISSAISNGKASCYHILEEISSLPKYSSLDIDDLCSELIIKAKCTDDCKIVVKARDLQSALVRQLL
Description: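 Universal 'all 10-mer' protein binding microarrays (Agilent AMADID 015681) probed with GST-tagged S. cerevisiae TFs (full-length or DBD) made by in vitro transcription/translation (PURExpress), about 100-200 nM. Bound TF was detected with fluorescent anti-GST. Each ungapped 8-mer (which stands for itself and its reverse complement) is scored by the PBM enrichment score (E-score), a modified Wilcoxon-Mann-Whitney statistic from -0.5 to +0.5, computed with the Universal PBM Analysis Suite. Scale: above 0.35 generally sequence-specific binding.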

| Sequence | PBM E-score |
| --- | --- |
| ATGCAACA | -0.00464 |
| CACAGTCG | -0.0501 |
| AAAGCTGG | -0.145 |
| GTGTCAAC | -0.0779 |
| AGAATTTG | 0.189 |
| ACATTGTG | -0.0593 |
| ACATGGCA | -0.0744 |
| AGAGGGGG | -0.476 |
| ACGCGAAG | 0.0966 |
| AAACACGG | 0.0263 |
| ACGTGGCC | -0.079 |
| CGTTTCGA | -0.0385 |
| AAACTACC | 0.0961 |
| ATTAATTA | 0.263 |
| AGGAGTGA | -0.13 |
| CAACCCGA | 0.149 |
| TCTTCCCA | -0.315 |
| ACCGTCAT | -0.0459 |
| ACCACTAG | -0.182 |
| CCTCGACG | -0.105 |
| CGGCCCAG | -0.171 |
| CGCTAGCG | -0.184 |
| CAGGGGTA | -0.139 |
| AACCTTGT | -0.313 |
| CCCGTCCG | -0.299 |

| Sequence | PBM E-score |
| --- | --- |
| CCAATCCA | -0.149 |
| ACTCCAGC | -0.151 |
| AAGATGCT | 0.039 |
| GCGACAGC | -0.043 |
| AAGAATGA | -0.0235 |
| GCGGCGTA | -0.0691 |
| AACCCCAC | -0.178 |
| GACTCCCC | -0.26 |
| CAAGCACG | 0.152 |
| AACCCCAT | -0.107 |
| GAAATGGC | -0.127 |
| AAAAGCGC | 0.0216 |
| CAGTTACC | -0.00891 |
| GATAAATC | 0.133 |
| ACGGGACT | -0.134 |
| ACCTAAGT | 0.0196 |
| ATTGTCAA | 0.084 |
| AACTAACC | 0.182 |
| CGAGAGCC | -0.304 |
| AGCCTAGA | -0.16 |
| CAGCGGTA | 0.107 |
| CATAGAAG | -0.0635 |
| TCCCTCCA | -0.173 |
| ACGCCGCA | -0.0273 |
| AATTGACA | 0.0327 |

| Sequence | PBM E-score |
| --- | --- |
| CGTAGGGC | -0.225 |
| AATACTGC | 0.12 |
| CAGCCGGA | 0.21 |
| AAGTATAA | 0.0643 |
| TCGAATCA | 0.194 |
| ACGGCACC | -0.249 |
| GCCCACAA | -0.153 |
| ACTCCTTA | -0.267 |
| CATTCCTA | -0.0168 |
| AGCTCGAA | 0.151 |
| TCGAGGCA | 0.169 |
| CAATGGCG | 0.0748 |
| GTGCCGCA | 0.232 |
| TCATTCCA | -0.125 |
| AAGTCTTC | -0.025 |
| AAATACGC | 0.1 |
| ATTCAGCG | 0.0791 |
| AGACCCTA | -0.231 |
| CAAGCCAC | -0.244 |
| ATACGAAA | 0.216 |
| CCGCCCGA | 0.0119 |
| AAATCCGC | -0.0557 |
| CGGCACAA | -0.103 |
| AGATGTTC | -0.0743 |
| ACAATTCG | 0.0813 |

| Sequence | PBM E-score |
| --- | --- |
| GACCCACA | 0.115 |
| ACTAATAC | 0.301 |
| CCATGTAC | -0.063 |
| CGGCCTTC | 0.112 |
| GGTTTGTA | 0.0742 |
| AAATCGAG | 0.086 |
| ACCAGGGG | -0.409 |
| GCCGTAAC | 0.0841 |
| CTGTTAAA | 0.034 |
| CGCTGCAC | 0.0234 |
| GTCTCATA | 0.00534 |
| TGGAACAA | 0.144 |
| CTTCGCAC | 0.0282 |
| AGTTACGG | -0.229 |
| AATGCGCA | 0.342 |
| ATGTATTG | 0.095 |
| AATTCCTG | -0.128 |
| GTGCGTAA | 0.116 |
| ACAAGAGC | -0.107 |
| CAGACAGC | -0.111 |
| TCACCACA | 0.144 |
| ATTACAAA | 0.425 |
| CAGGTATC | -0.0707 |
| AACAATAC | 0.135 |
| CATTTTTC | 0.124 |

| Sequence | PBM E-score |
| --- | --- |
| CGATCTTA | 0.0142 |
| ACGGTCCT | -0.272 |
| CGAAGAGC | -0.0445 |
| TTACGGAA | 0.072 |
| TAGTCAAA | -0.074 |
| CATTGAGC | -0.0704 |
| CTTAAGAC | -0.0415 |
| CCGCGTAA | 0.0243 |
| ATGCGCTA | 0.101 |
| CACTAAGC | 0.0972 |
| AGCTTGAT | 0.0208 |
| ATAGCAAG | 0.0832 |
| GCGTCAAC | -0.0122 |
| ATGATGGG | -0.0815 |
| AGTGCCGG | -0.0719 |
| AACCGTGT | -0.0504 |
| ACGAGACG | -0.0928 |
| AAACCCAT | 0.261 |
| GTTTGCCA | 0.00247 |
| CGGGGACA | 0.00954 |
| GTTAGTCA | 0.266 |
| CACGCAAG | 0.161 |
| ACTGCACC | 0.0283 |
| ATACTATA | -0.00949 |
| AAAATCCG | 0.0887 |

Taken from the entries so far for reference:

| Sequence | PBM E-score |
| --- | --- |
| GTCTCATA | 0.00534 |
| TGGAACAA | 0.144 |
| CTTCGCAC | 0.0282 |
| AGTTACGG | -0.229 |
| AATGCGCA | 0.342 |
| ATGTATTG | 0.095 |
| AATTCCTG | -0.128 |
| GTGCGTAA | 0.116 |
| ACAAGAGC | -0.107 |
| CAGACAGC | -0.111 |
| TCACCACA | 0.144 |
| ATTACAAA | 0.425 |
| CAGGTATC | -0.0707 |
| AACAATAC | 0.135 |
| CATTTTTC | 0.124 |
| CGATCTTA | 0.0142 |
| ACGGTCCT | -0.272 |
| CGAAGAGC | -0.0445 |
| TTACGGAA | 0.072 |
| TAGTCAAA | -0.074 |
| CATTGAGC | -0.0704 |
| CTTAAGAC | -0.0415 |
| CCGCGTAA | 0.0243 |
| ATGCGCTA | 0.101 |
| CACTAAGC | 0.0972 |
| AGCTTGAT | 0.0208 |
| ATAGCAAG | 0.0832 |
| GCGTCAAC | -0.0122 |
| ATGATGGG | -0.0815 |
| AGTGCCGG | -0.0719 |
| AACCGTGT | -0.0504 |
| ACGAGACG | -0.0928 |
| AAACCCAT | 0.261 |
| GTTTGCCA | 0.00247 |
| CGGGGACA | 0.00954 |
| GTTAGTCA | 0.266 |
| CACGCAAG | 0.161 |
| ACTGCACC | 0.0283 |

Next part

| Sequence | PBM E-score |
| --- | --- |
| GCGTCTGA | 0.0329 |
| AAAATCGA | 0.0728 |
| CTGAGGCA | -0.153 |
| AACGATAT | 0.271 |
| CGTAAAAG | 0.0161 |
| CGATGCGC | 0.102 |
| CAACTCAA | 0.218 |
| GACCTGAA | -0.00931 |
| TCAGCTAA | 0.0322 |
| CTAATCTC | 0.155 |
| CACGAGAG | -0.253 |
| AATGGGAT | -0.161 |
| GATACATA | 0.181 |
| CGCATGTC | 0.0303 |
| CCTTCCCC | -0.168 |
| CGTAACCA | 0.0582 |
| CGGAACCG | 0.0852 |
| AAACGTTA | 0.125 |
| CCAAGGGC | -0.25 |
| ACACCAGA | 0.0117 |
| AGTCCTGA | -0.0327 |
| GCTCTATA | -0.205 |
| CGATCTCC | -0.0343 |
| TTTAGAAA | -0.0357 |
| CGGTTTAC | -0.0741 |

| Sequence | PBM E-score |
| --- | --- |
| CTGACTGA | 0.0583 |
| AATGGACT | 0.0697 |
| AATTATAT | 0.29 |
| AAAGTGGG | 0.0573 |
| CAGCTAGC | 0.00595 |
| AGAACAAA | 0.247 |
| CGCGCGAG | 0.302 |
| AATAAACA | 0.247 |
| AGGTGGGA | -0.26 |
| GGCATATA | 0.196 |
| ACCGCTGA | 0.0668 |
| AATCGGTG | -0.0566 |
| AATAGCAG | -0.159 |
| AGGACACC | 0.00026 |
| ATTCTATC | 0.165 |
| CTAGGGTA | -0.178 |
| ACCTCGAC | 0.0528 |
| GTTCCAAA | 0.0114 |
| GATCATGC | -0.207 |
| CTTCAGCA | 0.0699 |
| GTCTTGAA | 0.0681 |
| AAGACTAG | -0.308 |
